# Results: PubChem BioAssay AID2417 (National Center for Advancing Translational Sciences (NCATS), 2010)
# Screen size: about 140,000 compounds; about 4,300 (3.1%) were called active. The inconclusive results got no clear call from the source; some entries with a clear call stand among them for comparison.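 How the source made its calls: active means readout at or below -70, meaning at least 70% loss of cells showing the perinucleolar compartment, a nuclear body marking cancer cells; inconclusive means readout between -30 and a set limit; inactive means the rest.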
# Test: High Content Assay for Compounds that inhibit the Assembly of the Perinucleolar Compartment;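 further: plate controls were DMSO wells for no effect and camptothecin positive control wells for full effect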
# Conditions: PC3M PTB-GFP, PNC prevalence imaging, 16 h; at 10 µM; stronger effect = lower value
# Procedure, shortened: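 Read-out is percentage of cells bearing a perinucleolar compartment, from automated 20x imaging of fixed, Hoechst-stained PC3M PTB-GFP cells. Cells were seeded 4 h, then exposed 16 h to compound (23 nl of library stock) in duplicate plates.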
row,SMILES,"activity change (PNC), negative = inhibition"
1,Cc1ccc(N2C(=O)NC(NC(=O)C3CC3)(C(F)(F)F)C2=O)cc1 (configuration not stated),active: -100%
2,C/C(=N/N1CCN(c2ccccn2)CC1)c1cccc([N+](=O)[O-])c1,inactive: 14.5%
3,CCOC(=O)Cc1csc(NC(=O)C2CCCN(S(=O)(=O)c3cnc[nH]3)C2)n1 (configuration not stated),inactive: -7.45%
4,COc1ccc(C2N(c3cc(Cl)ccc3OC)C(=O)C3CCCN32)c(OC)c1 (configuration not stated),inactive: 2.97%
5,O=C(NC1CCCC1)C(c1ccncc1)N(Cc1ccccc1)C(=O)c1ccc(-c2ccccc2)[nH]1 (configuration not stated),inconclusive: -43.5%
6,CNc1nc(C)c(C(=O)OCc2ccccc2)s1,inactive: -7.93%
7,Clc1ccc2[nH]c3c(NCCN4CCOCC4)ncnc3c2c1,inconclusive: -32.2%
8,CC/C(=N\NC(=O)CSCc1ccccc1Br)c1ccc2c(c1)OCCO2,inconclusive: -60.5%
9,CCc1nccn1S(=O)(=O)c1ccc2ccccc2c1,inconclusive: -44.5%
10,CCOC(=O)N1CCC(Nc2c(NCCCOC)c(=O)c2=O)CC1,inconclusive: -34.5%
11,CCc1ccc(NC(=O)CC2C(=O)NCCN2C(=S)Nc2ccccc2)cc1 (configuration not stated),inconclusive: -60.5%
12,Cc1ccc(S(=O)(=O)CCc2nnc(NC(=O)c3cccs3)s2)cc1,inconclusive: -47.9%
13,O=c1cc(-c2ccccc2F)oc2ccccc12,inactive: 4.19%
14,O=C1CCC(=O)N1c1cccc(OS(=O)(=O)c2ccccc2)c1,inconclusive: -45%
15,O=S(=O)(Nc1cccc(-c2nc3cccnc3s2)c1)c1ccc2c(c1)OCCO2,inactive: -19.7%
16,CC1=CC=CN2CC(O)CN=C12 (configuration not stated),inconclusive: -40%
17,Cc1ccc(-c2[nH]ncc2/C=N/n2c(COc3ccccc3)nc3ccccc3c2=O)cc1,inconclusive: -41.1%
18,O=C(O)CCCC(=O)Nc1ccc(C(=O)NCc2cccnc2)cc1,inconclusive: -31.5%
19,S=C(Nc1cccc(Cl)c1)N1CCOCC1,inconclusive: -53.4%

row,SMILES,"activity change (PNC), negative = inhibition"
1,Cc1ccc(S(=O)(=O)/C(C#N)=C/c2c(N3CCC(C(N)=O)CC3)nc3ccccn3c2=O)cc1,inconclusive: -31.4%
2,CCCCNC(=O)CN(C1CCCCC1)S(C)(=O)=O,inactive: -11.7%
3,CC(C)c1ccccc1-n1c(SCC(=O)N2CCc3ccccc3C2)nc2ccccc2c1=O,inconclusive: -31.6%
4,Cc1cc(C(=O)N2CCN(c3ccccn3)CC2)c(C)o1,inconclusive: -48.7%
5,CCn1cc(CNC(=O)c2c(-c3c(Cl)cccc3Cl)noc2C)c(C)n1,inactive: 32.2%
6,COC(=O)c1ccccc1NC(=O)N1CCCC1,inconclusive: -41.4%
7,CCOC(=O)C1CCCN(CC(O)COc2ccc(OC)cc2C(C)(C)C)C1 (configuration not stated),inconclusive: -49.8%
8,CCOc1ccc(C(=O)NCCC(=O)NCCCC(=O)O)cc1,inconclusive: -33.9%
9,CCC(C)(C)n1nnnc1C(c1ccc2ncccc2c1)N1CCN(Cc2ccc3c(c2)OCO3)CC1 (configuration not stated),inconclusive: -75.9%
10,COC(=O)C(CC(C)C)NC(=O)c1ccc([N+](=O)[O-])c(C)c1 (configuration not stated),inactive: 89.2%
11,COc1ccccc1/C=C/C(=O)NCC(=O)N/N=C/c1cc(Br)ccc1OC,inconclusive: -36.5%
12,CCC1=Nc2cc(C(=O)NCc3ccco3)ccc2Sc2ccc(C)cc21,inconclusive: -65%
13,Cc1cc(O)c(C(C[N+](=O)[O-])c2ccc(Cl)cc2Cl)c(=O)o1 (configuration not stated),inactive: 30%
14,CCSC1=N/C(=C\c2ccccc2)C(=O)N1,inconclusive: -37%
15,COc1ccc(CCNC(=O)CSc2nc3cc(Cl)ccc3o2)cc1OC,inconclusive: -61.5%
16,CC(=O)c1cccc(S(=O)(=O)N(CCCO)Cc2cc3ccc(C)cc3[nH]c2=O)c1,inconclusive: -56.2%
17,O=C(c1ccc(C(=O)N2CCCc3ccccc32)nc1)N1CCCc2ccccc21,active: -100%
18,Cc1ccccc1OC(=O)n1c(=S)oc2cc(Cl)ccc21,inactive: -15.3%
19,Cc1ccc(S(=O)(=O)NC2(C(F)(F)F)NC(=O)N(C)C2=O)cc1 (configuration not stated),active: -86.9%

row,SMILES,"activity change (PNC), negative = inhibition"
1,Cc1ccc(S(=O)(=O)N2CCN(C(=O)CN3CCc4ccccc4C3)CC2)cc1,inactive: 37.8%
2,CC1CCc2nc(N)c(C#N)c(-c3cccnc3)c2C1 (configuration not stated),inactive: -20.8%
3,CN(C)c1nc(Nc2ccccc2)nc(N(C)C)n1,inactive: 25.4%
4,C/C(CC1(O)C(=O)N(C)c2ccccc21)=N\O (configuration not stated),inactive: 6.53%
5,O=C(Nc1ccccn1)c1ccc2c(c1)S(=O)(=O)c1ccccc1C2=O,inactive: 62%
6,COc1ccc(C2C(C(C)=O)=C(O)C(=O)N2c2ccc(Br)cn2)cc1 (configuration not stated),inactive: -19.1%
7,COc1ccc(CN(C2CCCCC2C)S(=O)(=O)c2ccc(S(=O)(=O)N(C)C)cc2)cc1OC (configuration not stated),inconclusive: -37.6%
8,O=C1c2cccnc2-c2ncccc21,inactive: 59%
9,O=C(NC1CCCC1)C1CCCN1C(=O)Nc1ccc(Cl)cc1 (configuration not stated),inconclusive: -39.7%
10,COc1cc(-c2nc(-c3ccc(NC(=O)c4ccc(Br)o4)cc3)no2)cc(OC)c1OC,inconclusive: -32.5%
11,CSCCC(NS(=O)(=O)c1ccc(Cl)cc1)C(=O)OCC(=O)c1ccc(F)cc1 (configuration not stated),inconclusive: -59.8%
12,CCOCCCNC(=O)C(NC(=O)c1ccc(NC(C)=O)cc1)c1ccccc1 (configuration not stated),inconclusive: -33.8%
13,Cc1cccc(-n2c(SCc3cc(=O)n4ccsc4n3)nc3ccccc32)c1,inconclusive: -34%
14,COC1(OC)C(/C=C/c2ccc(Cl)cc2)C(C#N)(C#N)C1(OC)OC (configuration not stated),inconclusive: -61.4%
15,Nc1nncn1C(=O)CCc1ccccc1,inactive: 14.9%
16,Cc1ccccc1Cn1nc(C)c(NC(=O)c2cc3n(n2)C(C(F)F)CC(C(F)F)N3)c1C (configuration not stated),inconclusive: -41.8%
17,COc1ccc(C)cc1NC(=O)C(OC(=O)c1cc(C)oc1C)c1ccccc1 (configuration not stated),inconclusive: -76.7%
18,Cc1cc(C)c(S(=O)(=O)NCc2ccncc2)c(C)c1,inconclusive: -42.8%
19,COc1ccc(NC(=O)c2cccnc2Nc2ccccc2)cc1,inconclusive: -57.1%

# 5 entries from above, sorted by count of non-hydrogen atoms, high to low.
row,SMILES,"activity change (PNC), negative = inhibition"
7,COc1ccc(CN(C2CCCCC2C)S(=O)(=O)c2ccc(S(=O)(=O)N(C)C)cc2)cc1OC (configuration not stated),inconclusive: -37.6%
17,COc1ccc(C)cc1NC(=O)C(OC(=O)c1cc(C)oc1C)c1ccccc1 (configuration not stated),inconclusive: -76.7%
14,COC1(OC)C(/C=C/c2ccc(Cl)cc2)C(C#N)(C#N)C1(OC)OC (configuration not stated),inconclusive: -61.4%
15,Nc1nncn1C(=O)CCc1ccccc1,inactive: 14.9%
8,O=C1c2cccnc2-c2ncccc21,inactive: 59%
